Experimental data reported in PMC4691244.
No constants are given. Whether binding was seen depends on the method and setting. Binding seen in cells or lysates may run through a third protein. Some results given as binding are weak or reduced against the parent protein; the word gives no strength. For some assays here: Tags and fused reporters may be left off the sequences shown. Blank lines part the entries; values can stand above or below the binder they belong to.

What was measured:
[1] = molecular target: T1, DGCR8 (endogenous) (human (endogenous in HEK293T)) (UniProt Q8WYQ5); assay: co-IP; reciprocal immunoprecipitation of endogenous DGCR8 and endogenous hRRP6, western blot; in the presence or absence of RNase A
T1 sequence: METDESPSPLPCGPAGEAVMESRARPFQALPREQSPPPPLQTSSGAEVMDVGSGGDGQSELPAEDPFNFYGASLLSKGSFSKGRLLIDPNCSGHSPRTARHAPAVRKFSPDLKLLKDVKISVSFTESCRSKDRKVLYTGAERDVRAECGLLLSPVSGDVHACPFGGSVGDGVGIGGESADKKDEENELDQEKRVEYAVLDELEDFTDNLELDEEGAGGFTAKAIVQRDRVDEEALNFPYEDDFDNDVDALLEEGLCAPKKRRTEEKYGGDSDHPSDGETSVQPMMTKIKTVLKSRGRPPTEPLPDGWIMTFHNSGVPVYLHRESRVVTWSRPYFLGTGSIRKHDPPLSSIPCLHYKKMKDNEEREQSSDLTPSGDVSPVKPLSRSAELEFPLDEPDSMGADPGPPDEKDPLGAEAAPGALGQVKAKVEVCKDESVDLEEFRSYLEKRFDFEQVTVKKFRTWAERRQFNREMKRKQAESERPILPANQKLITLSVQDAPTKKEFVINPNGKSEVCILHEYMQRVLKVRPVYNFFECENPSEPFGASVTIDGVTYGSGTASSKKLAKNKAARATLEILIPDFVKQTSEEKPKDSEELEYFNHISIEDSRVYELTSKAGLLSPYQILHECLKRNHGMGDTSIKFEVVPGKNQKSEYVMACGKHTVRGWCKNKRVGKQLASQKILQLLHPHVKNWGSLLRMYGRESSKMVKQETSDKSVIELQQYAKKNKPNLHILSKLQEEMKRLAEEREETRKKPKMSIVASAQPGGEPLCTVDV

[2] = molecular target: T2, FLAG-DGCR8 (human) (UniProt Q8WYQ5); assay: co-IP; immunoprecipitation of transiently expressed FLAG-DGCR8 from nucleoplasmic and nucleolar fractions, western blot of endogenous hRRP6
T2 sequence: T1 sequence

[3] = molecular target: T3, FLAG-Drosha (UniProt Q9NRR4); assay: co-IP + co-sedimentation; FLAG immunoprecipitates eluted under native conditions, 5%-30% glycerol gradient (50mM Tris (pH 0.5), 150 mM NaCl, 1 mM EDTA; 16 hr at 41,000 rpm), fractions pooled into light (1-11) and heavy (12-22), western blot; lysates produced in the presence of DNase and RNase
T3 sequence: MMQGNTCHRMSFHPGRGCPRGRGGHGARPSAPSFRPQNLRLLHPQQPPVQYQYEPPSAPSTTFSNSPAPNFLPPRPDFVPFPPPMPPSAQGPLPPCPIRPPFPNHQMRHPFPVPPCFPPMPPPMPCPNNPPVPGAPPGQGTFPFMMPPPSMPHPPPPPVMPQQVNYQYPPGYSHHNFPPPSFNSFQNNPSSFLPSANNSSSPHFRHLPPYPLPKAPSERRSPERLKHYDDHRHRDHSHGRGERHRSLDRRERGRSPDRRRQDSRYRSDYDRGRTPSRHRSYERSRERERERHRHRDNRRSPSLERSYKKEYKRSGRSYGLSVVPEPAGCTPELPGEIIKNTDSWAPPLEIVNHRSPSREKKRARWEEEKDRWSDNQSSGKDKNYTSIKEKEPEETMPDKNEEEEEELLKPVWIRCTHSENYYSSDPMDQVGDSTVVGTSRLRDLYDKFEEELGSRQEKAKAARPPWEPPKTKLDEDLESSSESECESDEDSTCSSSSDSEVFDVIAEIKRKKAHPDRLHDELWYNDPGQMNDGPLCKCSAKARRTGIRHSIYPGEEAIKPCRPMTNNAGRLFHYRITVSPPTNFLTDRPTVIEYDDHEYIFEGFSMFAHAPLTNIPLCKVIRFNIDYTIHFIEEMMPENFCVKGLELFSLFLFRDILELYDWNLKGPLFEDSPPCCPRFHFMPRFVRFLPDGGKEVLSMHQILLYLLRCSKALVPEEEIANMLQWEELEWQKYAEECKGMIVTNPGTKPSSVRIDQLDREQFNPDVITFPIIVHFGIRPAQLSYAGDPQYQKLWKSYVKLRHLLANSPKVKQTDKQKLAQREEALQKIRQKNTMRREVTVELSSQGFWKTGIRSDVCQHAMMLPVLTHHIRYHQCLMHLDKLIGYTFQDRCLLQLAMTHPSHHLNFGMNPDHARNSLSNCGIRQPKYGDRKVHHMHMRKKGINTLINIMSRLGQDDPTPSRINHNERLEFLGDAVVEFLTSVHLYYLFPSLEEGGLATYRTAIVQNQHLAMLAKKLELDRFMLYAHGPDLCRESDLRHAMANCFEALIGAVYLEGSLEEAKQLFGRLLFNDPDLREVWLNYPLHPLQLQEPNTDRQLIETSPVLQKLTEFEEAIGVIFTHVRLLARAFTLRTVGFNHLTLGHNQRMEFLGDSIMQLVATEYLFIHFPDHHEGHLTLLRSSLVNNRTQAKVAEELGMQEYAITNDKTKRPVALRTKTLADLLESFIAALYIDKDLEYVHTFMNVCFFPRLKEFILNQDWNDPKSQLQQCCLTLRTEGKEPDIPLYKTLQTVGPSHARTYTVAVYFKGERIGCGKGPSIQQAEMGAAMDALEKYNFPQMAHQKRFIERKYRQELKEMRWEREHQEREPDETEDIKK

[4] = molecular target: T2, FLAG-DGCR8 (human); assay: as above
[5] = molecular target: T3, FLAG-Drosha; assay: co-IP; anti-T7 or anti-FLAG immunoprecipitation of overexpressed T7-DGCR8, FLAG-DGCR8, FLAG-Drosha (and T7-DGCR8 dRBD1&2 mut) from transfected HEK293T cells; western blot of endogenous partners; in the presence or absence of RNase A (Figure 1C)
[6] = molecular target: T2, FLAG-DGCR8 (human); assay: as above
[7] = molecular target: T4, T7-DGCR8 (human) (UniProt Q8WYQ5); assay: as above
T4 sequence: T1 sequence

[8] = molecular target: T5, mouse RRP6 (mouse (endogenous in mouse embryonic stem cells)) (UniProt P56960); assay: co-IP; immunoprecipitation of endogenous RRP6 from mouse embryonic stem cells (Dgcr8+/+ and Dgcr8-/-), western blot of copurified DGCR8
T5 sequence: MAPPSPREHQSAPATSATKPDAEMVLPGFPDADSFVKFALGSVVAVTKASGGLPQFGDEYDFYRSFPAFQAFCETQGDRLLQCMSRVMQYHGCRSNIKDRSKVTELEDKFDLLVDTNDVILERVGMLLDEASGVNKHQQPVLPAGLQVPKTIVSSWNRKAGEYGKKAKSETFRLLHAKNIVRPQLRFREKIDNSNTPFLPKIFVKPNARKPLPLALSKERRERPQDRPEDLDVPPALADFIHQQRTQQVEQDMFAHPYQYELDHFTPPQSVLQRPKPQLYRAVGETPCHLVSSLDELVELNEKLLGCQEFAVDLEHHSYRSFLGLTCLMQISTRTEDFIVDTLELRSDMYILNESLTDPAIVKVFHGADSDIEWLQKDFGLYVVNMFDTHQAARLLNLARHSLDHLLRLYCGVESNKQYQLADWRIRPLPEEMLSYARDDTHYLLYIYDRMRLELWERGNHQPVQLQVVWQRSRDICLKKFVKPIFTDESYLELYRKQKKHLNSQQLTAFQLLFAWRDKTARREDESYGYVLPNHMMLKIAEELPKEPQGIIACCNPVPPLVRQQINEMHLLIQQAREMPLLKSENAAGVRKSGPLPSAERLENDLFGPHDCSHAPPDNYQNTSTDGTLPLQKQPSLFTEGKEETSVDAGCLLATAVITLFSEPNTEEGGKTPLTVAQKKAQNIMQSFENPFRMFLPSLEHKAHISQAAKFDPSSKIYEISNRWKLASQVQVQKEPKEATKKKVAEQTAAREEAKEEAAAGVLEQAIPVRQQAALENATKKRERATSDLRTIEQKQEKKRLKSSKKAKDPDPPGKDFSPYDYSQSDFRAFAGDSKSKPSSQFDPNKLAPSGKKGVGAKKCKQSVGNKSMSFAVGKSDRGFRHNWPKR

- binding [1]: binds
- binding [2]: binds
- binding [3]: no binding
- binding [4]: binds
- binding [5]: no binding
- binding [6]: binds
- binding [7]: binds
B1: hRRP6 (enzyme, UniProt Q01780 1-885)
chain: MAPPSTREPRVLSATSATKSDGEMVLPGFPDADSFVKFALGSVVAVTKASGGLPQFGDEYDFYRSFPGFQAFCETQGDRLLQCMSRVMQYHGCRSNIKDRSKVTELEDKFDLLVDANDVILERVGILLDEASGVNKNQQPVLPAGLQVPKTVVSSWNRKAAEYGKKAKSETFRLLHAKNIIRPQLKFREKIDNSNTPFLPKIFIKPNAQKPLPQALSKERRERPQDRPEDLDVPPALADFIHQQRTQQVEQDMFAHPYQYELNHFTPADAVLQKPQPQLYRPIEETPCHFISSLDELVELNEKLLNCQEFAVDLEHHSYRSFLGLTCLMQISTRTEDFIIDTLELRSDMYILNESLTDPAIVKVFHGADSDIEWLQKDFGLYVVNMFDTHQAARLLNLGRHSLDHLLKLYCNVDSNKQYQLADWRIRPLPEEMLSYARDDTHYLLYIYDKMRLEMWERGNGQPVQLQVVWQRSRDICLKKFIKPIFTDESYLELYRKQKKHLNTQQLTAFQLLFAWRDKTARREDESYGYVLPNHMMLKIAEELPKEPQGIIACCNPVPPLVRQQINEMHLLIQQAREMPLLKSEVAAGVKKSGPLPSAERLENVLFGPHDCSHAPPDGYPIIPTSGSVPVQKQASLFPDEKEDNLLGTTCLIATAVITLFNEPSAEDSKKGPLTVAQKKAQNIMESFENPFRMFLPSLGHRAPVSQAAKFDPSTKIYEISNRWKLAQVQVQKDSKEAVKKKAAEQTAAREQAKEACKAAAEQAISVRQQVVLENAAKKRERATSDPRTTEQKQEKKRLKISKKPKDPEPPEKEFTPYDYSQSDFKAFAGNSKSKVSSQFDPNKQTPSGKKCIAAKKIKQSVGNKSMSFPTGKSDRGFRYNWPQR

- binding [8]: binds
B2: mouse DGCR8 (protein, UniProt Q9EQM6 1-773)
chain: METYESPSPLPREPAGEAMMENRACPFQVLPHEQSPPPPLQTSSDAEVMDVGSGGDGQSEPPADDPFNFYGASLLSKGSFSKGRLLIDPNCSGHSPRTARHAPAVRKFSPDLKLLKDVKISVSFTESCRSKDRKVLYTGVERSTRPECGQLLSPVSGDVHACPFGGSVGNGVGLGGESADKKDEENELDQEKRVEYAVLDELEDFTDNLELDEEGTGGFTAKAIVQRDRVDEEALNFSYEDDFDNDVDALLEEGLCAPKKRRMEEKYGGDSDHPSDGETSVQPMMTKIKTVLKSRGRPPTEPLPDGWIMTFHNSGVPVYLHRESRVVTWSRPYFLGTGSIRKHDPPLSSIPCLHYKKMKDNEEREQNCDLAPSGEVSPVKPLGRSAELDFPLEEPDSMGGDSGSMDEKDPLGAEAAAGALGQVKAKVEVCKDESVDLEEFRNYLEKRFDFEQVTVKKFRTWAERRQFNREMKRKQAESERPILPANQKLITLSVQDAPTKKEFVINPNGKSEVCILHEYMQRVLKVRPVYNFFECENPSEPFGASVTIDGVTYGSGTASSKKLAKNKAARATLEILIPDFVKQTSEEKPKDSEELEYFNHISIEDSRVYELTSKAGLLSPYQILHECLKRNHGMGDTSIKFEVVPGKNQKSEYVMACGKHTVRGWCKNKRVGKQLASQKILQLLHPHVKNWGSLLRMYGRESSKMVKQETSDKSVIELQQYAKKNRPNLHILSKLQEEMKRLAAEREETRKKPKMSIVASAQPGGEPLCTVDV
